Results published in publication PMC12727705.
These are yes or no findings as the source states them, for the method shown. Binding seen in cells or lysates may run through a third protein. These calls come from enrichment with a bait or labelling near it, and not all partners need be listed. Sequences can lack the tags named with a protein.

Chains of the proteins cited; added tags and fusions are not shown. Lines headed by an entry give the natural chain unless they say otherwise; changes in a name come on top.
UniProt Q23165: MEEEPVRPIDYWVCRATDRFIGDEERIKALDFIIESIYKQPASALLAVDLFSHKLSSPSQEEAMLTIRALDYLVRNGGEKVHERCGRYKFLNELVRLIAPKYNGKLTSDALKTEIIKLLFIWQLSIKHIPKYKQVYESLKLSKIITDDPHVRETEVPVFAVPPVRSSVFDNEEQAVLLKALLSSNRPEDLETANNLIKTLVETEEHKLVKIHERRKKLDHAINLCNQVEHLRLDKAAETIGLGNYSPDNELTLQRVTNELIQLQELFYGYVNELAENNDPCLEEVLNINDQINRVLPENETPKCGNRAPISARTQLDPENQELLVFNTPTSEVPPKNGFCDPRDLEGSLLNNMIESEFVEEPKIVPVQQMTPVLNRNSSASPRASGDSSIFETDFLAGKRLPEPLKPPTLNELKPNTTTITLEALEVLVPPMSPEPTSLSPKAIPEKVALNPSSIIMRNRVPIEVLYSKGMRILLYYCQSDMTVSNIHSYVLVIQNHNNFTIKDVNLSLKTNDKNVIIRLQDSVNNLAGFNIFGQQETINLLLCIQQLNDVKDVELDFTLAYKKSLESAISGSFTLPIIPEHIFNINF
UniProt Q9U263: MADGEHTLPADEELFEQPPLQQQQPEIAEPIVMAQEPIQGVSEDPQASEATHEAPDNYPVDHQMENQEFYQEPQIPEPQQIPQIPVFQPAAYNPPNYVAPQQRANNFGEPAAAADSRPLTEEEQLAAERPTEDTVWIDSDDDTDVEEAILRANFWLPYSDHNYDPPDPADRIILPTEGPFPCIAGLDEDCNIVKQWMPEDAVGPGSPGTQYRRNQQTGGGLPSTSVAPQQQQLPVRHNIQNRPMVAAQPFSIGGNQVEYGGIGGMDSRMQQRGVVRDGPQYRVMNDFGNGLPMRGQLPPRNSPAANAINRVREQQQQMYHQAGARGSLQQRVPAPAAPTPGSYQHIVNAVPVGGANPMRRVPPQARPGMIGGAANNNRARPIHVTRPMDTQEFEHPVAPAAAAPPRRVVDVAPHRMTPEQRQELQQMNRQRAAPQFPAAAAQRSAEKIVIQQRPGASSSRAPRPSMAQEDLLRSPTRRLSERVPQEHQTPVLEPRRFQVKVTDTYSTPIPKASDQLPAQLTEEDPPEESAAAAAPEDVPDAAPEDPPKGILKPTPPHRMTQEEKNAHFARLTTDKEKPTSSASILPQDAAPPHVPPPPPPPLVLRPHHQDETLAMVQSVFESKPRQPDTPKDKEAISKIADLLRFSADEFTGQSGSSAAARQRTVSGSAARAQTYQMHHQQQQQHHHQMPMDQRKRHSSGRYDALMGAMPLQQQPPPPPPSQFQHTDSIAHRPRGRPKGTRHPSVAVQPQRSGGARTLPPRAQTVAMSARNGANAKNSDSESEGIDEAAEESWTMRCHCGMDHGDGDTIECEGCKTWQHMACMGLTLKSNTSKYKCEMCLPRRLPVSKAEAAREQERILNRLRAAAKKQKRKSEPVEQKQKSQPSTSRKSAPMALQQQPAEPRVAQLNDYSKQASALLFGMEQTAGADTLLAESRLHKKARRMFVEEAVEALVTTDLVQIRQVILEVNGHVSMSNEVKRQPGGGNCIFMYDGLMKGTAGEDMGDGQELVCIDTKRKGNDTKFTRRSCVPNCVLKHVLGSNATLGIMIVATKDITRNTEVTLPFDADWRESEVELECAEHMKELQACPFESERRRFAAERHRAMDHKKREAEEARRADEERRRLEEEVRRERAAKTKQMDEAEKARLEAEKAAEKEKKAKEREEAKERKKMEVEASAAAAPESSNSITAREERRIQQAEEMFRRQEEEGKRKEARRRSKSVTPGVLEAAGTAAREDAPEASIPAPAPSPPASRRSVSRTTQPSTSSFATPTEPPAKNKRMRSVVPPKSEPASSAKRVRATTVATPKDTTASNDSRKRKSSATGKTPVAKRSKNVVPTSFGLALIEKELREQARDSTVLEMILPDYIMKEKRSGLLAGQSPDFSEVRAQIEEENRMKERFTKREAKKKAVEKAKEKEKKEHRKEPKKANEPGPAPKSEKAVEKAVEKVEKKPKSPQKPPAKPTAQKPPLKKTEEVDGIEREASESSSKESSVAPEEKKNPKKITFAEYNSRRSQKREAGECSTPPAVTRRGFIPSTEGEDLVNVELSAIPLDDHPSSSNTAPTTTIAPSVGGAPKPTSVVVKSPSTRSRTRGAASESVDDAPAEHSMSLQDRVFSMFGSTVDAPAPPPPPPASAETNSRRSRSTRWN
UniProt Q9U2X0: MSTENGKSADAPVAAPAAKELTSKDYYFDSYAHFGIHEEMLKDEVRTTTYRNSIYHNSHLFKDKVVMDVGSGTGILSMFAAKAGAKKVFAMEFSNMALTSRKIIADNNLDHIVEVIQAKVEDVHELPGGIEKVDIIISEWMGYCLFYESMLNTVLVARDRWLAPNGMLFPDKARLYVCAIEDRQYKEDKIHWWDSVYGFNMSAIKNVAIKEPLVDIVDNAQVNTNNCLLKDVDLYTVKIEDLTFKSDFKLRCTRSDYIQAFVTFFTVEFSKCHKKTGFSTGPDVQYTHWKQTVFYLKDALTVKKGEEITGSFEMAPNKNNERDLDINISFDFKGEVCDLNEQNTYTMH
UniProt P23678: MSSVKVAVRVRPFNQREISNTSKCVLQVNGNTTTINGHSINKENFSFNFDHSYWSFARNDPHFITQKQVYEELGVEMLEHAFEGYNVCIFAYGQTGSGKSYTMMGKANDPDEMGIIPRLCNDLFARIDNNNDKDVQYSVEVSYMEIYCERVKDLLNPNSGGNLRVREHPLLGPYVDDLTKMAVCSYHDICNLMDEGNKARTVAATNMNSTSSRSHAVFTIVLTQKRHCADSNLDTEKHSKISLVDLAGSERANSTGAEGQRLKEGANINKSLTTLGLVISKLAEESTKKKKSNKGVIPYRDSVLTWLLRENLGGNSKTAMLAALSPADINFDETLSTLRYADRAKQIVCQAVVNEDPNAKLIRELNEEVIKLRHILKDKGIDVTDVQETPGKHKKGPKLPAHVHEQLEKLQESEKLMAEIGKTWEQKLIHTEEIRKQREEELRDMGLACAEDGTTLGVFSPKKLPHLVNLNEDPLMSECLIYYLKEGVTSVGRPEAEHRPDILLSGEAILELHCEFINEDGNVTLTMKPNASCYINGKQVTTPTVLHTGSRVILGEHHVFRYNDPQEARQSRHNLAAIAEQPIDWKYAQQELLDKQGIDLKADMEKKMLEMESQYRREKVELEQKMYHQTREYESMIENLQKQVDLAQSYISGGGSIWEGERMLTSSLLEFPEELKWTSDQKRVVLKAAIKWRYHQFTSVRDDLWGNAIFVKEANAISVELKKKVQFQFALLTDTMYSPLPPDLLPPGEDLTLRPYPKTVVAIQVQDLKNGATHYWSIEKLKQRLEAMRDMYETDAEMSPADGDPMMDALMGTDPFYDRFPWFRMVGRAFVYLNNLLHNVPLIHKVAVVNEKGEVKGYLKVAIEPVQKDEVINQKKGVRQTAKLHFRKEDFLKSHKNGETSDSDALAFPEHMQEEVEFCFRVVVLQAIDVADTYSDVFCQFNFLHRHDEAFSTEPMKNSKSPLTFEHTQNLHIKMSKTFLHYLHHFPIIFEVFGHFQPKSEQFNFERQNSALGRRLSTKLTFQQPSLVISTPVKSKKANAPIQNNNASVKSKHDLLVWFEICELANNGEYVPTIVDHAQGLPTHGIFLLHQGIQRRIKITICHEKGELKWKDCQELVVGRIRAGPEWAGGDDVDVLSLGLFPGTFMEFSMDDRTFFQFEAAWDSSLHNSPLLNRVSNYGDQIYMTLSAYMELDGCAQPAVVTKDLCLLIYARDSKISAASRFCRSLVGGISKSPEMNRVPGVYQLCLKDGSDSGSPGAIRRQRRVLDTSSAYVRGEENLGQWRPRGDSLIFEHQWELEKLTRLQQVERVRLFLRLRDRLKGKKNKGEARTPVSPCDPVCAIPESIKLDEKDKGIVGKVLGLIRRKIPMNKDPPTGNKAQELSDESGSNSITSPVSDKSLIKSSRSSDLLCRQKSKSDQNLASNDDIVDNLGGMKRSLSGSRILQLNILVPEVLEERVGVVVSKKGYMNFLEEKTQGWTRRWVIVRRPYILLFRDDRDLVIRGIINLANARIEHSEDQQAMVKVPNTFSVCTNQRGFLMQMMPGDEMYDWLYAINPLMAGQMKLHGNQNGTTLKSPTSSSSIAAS
UniProt Q22139: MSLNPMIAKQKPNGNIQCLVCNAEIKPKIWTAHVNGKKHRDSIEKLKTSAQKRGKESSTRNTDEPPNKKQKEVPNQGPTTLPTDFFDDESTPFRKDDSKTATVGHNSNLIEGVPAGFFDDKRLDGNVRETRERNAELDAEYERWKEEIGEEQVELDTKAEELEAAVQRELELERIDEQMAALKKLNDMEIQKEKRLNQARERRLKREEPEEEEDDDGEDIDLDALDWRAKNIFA
UniProt V6CLN5: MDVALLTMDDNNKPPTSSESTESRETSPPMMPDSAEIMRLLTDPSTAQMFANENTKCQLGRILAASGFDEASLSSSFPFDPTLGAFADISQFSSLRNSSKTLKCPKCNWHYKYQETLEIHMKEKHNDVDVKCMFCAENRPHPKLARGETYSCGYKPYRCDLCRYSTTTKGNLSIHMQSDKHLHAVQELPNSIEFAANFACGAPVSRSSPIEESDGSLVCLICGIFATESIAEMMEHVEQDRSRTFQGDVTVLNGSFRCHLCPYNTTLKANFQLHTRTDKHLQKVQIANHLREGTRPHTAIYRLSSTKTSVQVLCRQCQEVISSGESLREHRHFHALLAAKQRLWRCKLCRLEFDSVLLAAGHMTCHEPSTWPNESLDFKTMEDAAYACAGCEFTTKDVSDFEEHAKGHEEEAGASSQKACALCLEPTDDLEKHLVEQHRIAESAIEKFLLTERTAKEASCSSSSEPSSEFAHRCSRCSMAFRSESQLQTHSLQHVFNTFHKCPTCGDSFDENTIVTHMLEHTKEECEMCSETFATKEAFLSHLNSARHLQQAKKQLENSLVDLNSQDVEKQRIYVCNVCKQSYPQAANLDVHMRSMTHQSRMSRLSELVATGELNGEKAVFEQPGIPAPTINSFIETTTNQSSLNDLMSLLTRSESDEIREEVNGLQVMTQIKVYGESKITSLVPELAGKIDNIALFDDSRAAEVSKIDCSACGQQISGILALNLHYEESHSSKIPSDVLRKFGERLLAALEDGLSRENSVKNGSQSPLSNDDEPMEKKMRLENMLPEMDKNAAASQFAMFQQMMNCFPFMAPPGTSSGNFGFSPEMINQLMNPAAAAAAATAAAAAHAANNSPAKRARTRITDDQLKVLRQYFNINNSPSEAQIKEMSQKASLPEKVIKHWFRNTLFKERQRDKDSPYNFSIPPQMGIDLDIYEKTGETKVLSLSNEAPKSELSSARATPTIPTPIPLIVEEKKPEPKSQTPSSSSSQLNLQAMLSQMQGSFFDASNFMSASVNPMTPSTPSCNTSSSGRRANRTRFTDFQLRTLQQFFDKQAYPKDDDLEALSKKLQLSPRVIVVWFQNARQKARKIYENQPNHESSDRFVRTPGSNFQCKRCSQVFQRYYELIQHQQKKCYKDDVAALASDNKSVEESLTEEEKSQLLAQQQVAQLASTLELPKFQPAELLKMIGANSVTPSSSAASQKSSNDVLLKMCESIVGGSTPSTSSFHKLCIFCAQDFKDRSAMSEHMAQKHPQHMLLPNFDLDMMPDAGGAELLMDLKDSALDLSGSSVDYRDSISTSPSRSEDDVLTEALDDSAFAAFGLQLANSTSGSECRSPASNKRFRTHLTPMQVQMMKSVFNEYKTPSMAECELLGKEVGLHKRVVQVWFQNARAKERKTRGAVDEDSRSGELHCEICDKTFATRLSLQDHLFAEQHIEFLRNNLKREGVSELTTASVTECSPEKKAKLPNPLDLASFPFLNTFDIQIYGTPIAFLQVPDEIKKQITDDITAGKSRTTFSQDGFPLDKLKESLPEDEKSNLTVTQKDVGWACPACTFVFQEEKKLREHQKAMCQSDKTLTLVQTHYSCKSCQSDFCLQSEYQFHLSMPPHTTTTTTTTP
UniProt Q9BL39: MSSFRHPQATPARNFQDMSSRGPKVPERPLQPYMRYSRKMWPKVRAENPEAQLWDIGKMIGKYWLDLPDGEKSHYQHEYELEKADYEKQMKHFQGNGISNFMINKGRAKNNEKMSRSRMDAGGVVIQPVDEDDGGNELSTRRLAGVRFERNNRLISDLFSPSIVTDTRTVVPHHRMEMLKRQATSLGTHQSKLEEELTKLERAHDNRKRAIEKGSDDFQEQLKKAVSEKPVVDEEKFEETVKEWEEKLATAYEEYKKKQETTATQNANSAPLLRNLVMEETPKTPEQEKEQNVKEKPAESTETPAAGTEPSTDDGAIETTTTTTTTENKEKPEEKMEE

T1: DAF-16::TurboID::mNeongreen::3xFLAG (C. elegans) (UniProt O16850)
T1 sequence: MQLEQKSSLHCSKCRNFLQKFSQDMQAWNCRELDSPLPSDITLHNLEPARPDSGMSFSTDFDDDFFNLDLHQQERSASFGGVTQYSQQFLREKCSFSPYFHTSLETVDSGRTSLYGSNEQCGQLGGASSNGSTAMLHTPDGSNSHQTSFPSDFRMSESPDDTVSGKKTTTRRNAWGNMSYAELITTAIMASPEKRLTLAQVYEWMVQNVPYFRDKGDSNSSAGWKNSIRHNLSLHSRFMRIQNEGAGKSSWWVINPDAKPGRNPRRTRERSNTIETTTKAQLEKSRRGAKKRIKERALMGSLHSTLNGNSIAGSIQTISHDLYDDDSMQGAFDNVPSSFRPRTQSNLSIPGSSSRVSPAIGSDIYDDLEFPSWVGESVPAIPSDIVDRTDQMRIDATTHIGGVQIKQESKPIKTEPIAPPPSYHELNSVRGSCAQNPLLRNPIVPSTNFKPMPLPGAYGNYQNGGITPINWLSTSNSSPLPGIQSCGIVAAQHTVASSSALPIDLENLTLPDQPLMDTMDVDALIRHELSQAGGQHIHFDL

B1: RFC-4 (protein, UniProt P53016 1-334)
chain: MEEPMEVDNKRPKVLTWTEKYRPKTLDDIAYQDEVVTMLKGALQGRDLPHLLFYGPPGTGKTSAALAFCRQLFPKNIFHDRVLDLNASDERGIAVVRQKIQSFSKSSLGHSHREDVLKLKIIILDEVDAMTREAQAAMRRVIEDFSKTTRFILICNYVSRLIPPVVSRCAKFRFKSLPAEIQVQRLRTICDAEGTPMSDDELKQVMEYSEGDLRRAVCTLQSLAPILKSGDDNARNCYLRGSSDSLLISNVCKSILTADVPQIIALTKDITKSCTGVAFIRRCFQQLMDEDVINDENIGVMGKLVATCEKRILDGCDLENNLLDFLLTLRETIQ
B2: HCF-1 (protein, UniProt G5EC23 1-782)
chain: MDEDVGLEATNYSRGDESRSEEQEKNVVRWRIVQQSTGPNPKPRHGHRAVVLKELIVIFGGGNEGMIDELHAYNTQKREWTAPQCCGDVPTPAAAFGAISLGNKIYRFGGMTEYGKYTNDLYELQSTRWEWRRLNPRVHSNGHLPCPRIGHSFVVSQKSQKAYVFGGLSNDLNDPKRNVPHYLDDLYVINLSGPQHLIWEKLNATGPGPISRESHTAVIYEKDSISRMVVYGGMNGVRLGDLWYLNLNTLHWTEIKFDDPRTGIPPMPRSLHSSVLIGDKMFVYGGWVPLLEHASTEQQTEKEWKCTSSLGCWNITEDRWVPLHLYCSDEDTIPRGRAGHCAAAVGDRMYIWSGRDGYRKAWSNQVCCRDMWLLDTILPEQPGKVQLGRAGFNSLEISWPIVQGASGYFLQIGFGDAKEQSVSPIKRATTSPRKQPSIVPPSQKETEQSPKKPQGTAPSIISTQGTTYTAPADPKPATDEGGLPQDLFEDTEKNETASPKRSNDAQSADSSTCEQKKTDESGLEEDSEKDQKPSDAGETDEMKEENGDDDLPWFDVGIIDKATINVTHYFNDRQQSLEKQLNDLIDHNAFKCVNDSVFTTEDKIPLINGQSYRFRVSAINGLGKGAWSETASCKTCVPGYPSAPSSIRITKSHEGAQLTWEPPSNTNISGKIIEYSVYLAVKNQSANSADSQLAFMRVYCGPQADCQVLQSNLGTAFVDQTNKPAIIFRIAARNEKGYGPATQVRWLQDQQKIPVRTNYPNNSGFIYQQHGGQQKRARFDHQ
B3: SGK-1 (enzyme, UniProt Q2PJ68 1-463)
chain: MGSMYYNESRMVRKDEVTCNVIIGDDKKTVVYALRIGNGPIMQKTFEEYERFFTTEKDMIPATIFTAPKKKFLQADSKFYEKRRVWILVISQHLVDNNLRSEDVRRFFHLESPDDDENNVDLGPSERKTATANDFDYLTTIGKGSFGRVYQVRHKETKKIYAMKILSKEHIRKKNEVKHVMAERNVLINNFKHPFLVSLHFSFQNKEKLYFVLDHLNGGELFSHLQREKHFSESRSRFYAAEIACALGYLHEKNIIYRDLKPENLLLDDKGYLVLTDFGLCKEDMQGSKTTSTFCGTPEYLAPEIILKKPYDKTVDWWCLGSVLYEMIFGLPPFYSKDHNEMYDKIINQPLRLKHNISVPCSELITGLLQKDRSKRLGHRNDFRDIRDHPFFLPVDWDKLLNRELKAPFIPKVKNAMDTSNISKEFVEIQIDPSSLAPQQLAVTHRDHDFENFTFVDTNRVLV
B4: SYD-1 (protein, UniProt Q86NH1 1-987)
chain: MLISTSLKFLTMLTSNGFGGTNPPKGMPYPPTYLYTEEPQNECCCCWLCRLLCCCSPVDQTASRSRMNASQPPPGGGGRLPDEVFRKITAVDQGQSTLTQSGIQGLSARTLSSEPRGDLVFQLVEIIKKPGQSLGLYLREGNGKDRSDGVFVSRFGDNSELAKYGEVMRPGDEILTINNVEVSMMSIDDVVLILSIPRRLLLRIRYSKSMRHEIISSRSRESERPVVVFHKYDDRRDSETNAPILSQPTSTANTWLGKKSRQQMEEMRNATTSSTLRTHASTSSPRNHFAPRLVNGHSHSIGVPSASTTSHDHQYQRFASEPSDSVSRTARVPPPRLASATVRRTESFNSAPGVSTSAPMYTLPRSSTAVPPPDILGSIPYSARDPLMRSSADLPYDPMTGRLSSSVPTDPLLSRSLCSPILPRTLRQANDSNKSNSLPRRRIMTGGRNVKWRNDVVSTSDLCGEESDGAISAPEYSSPPFSRLTQQQQFRLSNGSPGRTVNDIFSAAEYRNWAGPYDPRGMYGPFPPGQRATRWSHTYGEQRAPRTSSLPGRTVLAQSLVGSPVLPRHPPPIVQDRPSAVFDRYHVSPLMNRRAPLRAAGPGINVDRLSVSSLTGILYVHIVEGRGLKIPEKQKGLTEEMYCVLEVDEQHRARTGVSTIEQKFKWRETFHIDVVNATVSNFFVYSWHPQFRHKLCHKGSLKLLEAFVVDQLNDDRVFALNLEPRGQLIVRIGFHDLQAVFRRTVNPRLNGVFGISLSRLVQRERRDTPIVLTRLIQEIEKRGVDYSGLYVLCGSVEKKKMLRAELESNPLGTELAAESIPDTNVIACLIKDFLRELPEPLISPQIHGMLLEAASVALPNDVQTNRHLVLKIIDCLQLSAKNCLLLVLDHLSTVLCSSPHNGLTPTRLSLIFAPLLFFCLDTFSPYTISPTSKMAAVRTLDINQASSSLQMILSIWPSRVNSESGSDSPATTCQKGGVIAYVSESQC
B5: Grainyhead 1/GRH-1 (protein, UniProt G5EDF0 1-563)
chain: MSFQLDQSTSVIKTAPPGRLEFKNEPIDIASSNIQDLAKMQTLDGYYQQTSLQLPQSQQYHRMYENVYNNQQILYAQTQNFQYPSTLLTNGSLAQTEWRGQQMDTSAYSNTGYSRSSTSQQPQYTQQVTENERIVYKPVDMPSPVDSGIGGDISILNPKEEFFTSADGGSMLERSSERTLSHRDSPLVIPKLYNNLGFQYVLEAPISTSVRRDDDRMTYVNKGQFYTVSLEYTPDLNKCLKSQTVKSQLMVVFREDKTYEEEIKTWQSWHARQHVSKQRILEIDSKNSSGMIGQIEEIGNNAVQFYWNPSDPSGVRISIAVQCLSTDFSTQKGVKGLPLHVQIDTYDGENDKVPFHRGYCQIKVFCDKGAERKLRDEDKRAQKRKVQEYTAGALPGGRKKSDGEYHDQCERSEFYHMRELDKPAALFIAPEEFEPRYVDSTSLSFDMSEIEPIPTKRPRTSERIMLYVRKRDEQIYQPLHVVPASLSGLALAIANKFGADPDKMSGVYKRCAKGITVKVDDEMLRLYCNEDTFIIDVEHATDGSTAATLIEVAPTNPNSYSNS
B6: SIR-2.1 (enzyme, UniProt Q21921 1-607)
chain: MSRDSGNDSEVAVTHGEVQEITEENPEIGSMHITQETDISDAPETNTDSSRQRTESTTSVSSESWQNNDEMMSNLRRAQRLLDDGATPLQIIQQIFPDFNASRIATMSENAHFAILSDLLERAPVRQKLTNYNSLADAVELFKTKKHILVLTGAGVSVSCGIPDFRSKDGIYARLRSEFPDLPDPTAMFDIRYFRENPAPFYNFAREIFPGQFVPSVSHRFIKELETSGRLLRNYTQNIDTLEHQTGIKRVVECHGSFSKCTCTRCGQKYDGNEIREEVLAMRVAHCKRCEGVIKPNIVFFGEDLGREFHQHVTEDKHKVDLIVVIGSSLKVRPVALIPHCVDKNVPQILINRESLPHYNADIELLGNCDDIIRDICFSLGGSFTELITSYDSIMEQQGKTKSQKPSQNKRQLISQEDFLNICMKEKRNDDSSDEPTLKKPRMSVADDSMDSEKNNFQEIQKHKSEDDDDTRNSDDILKKIKHPRLLSITEMLHDNKCVAISAHQTVFPGAECSFDLETLKLVRDVHHETHCESSCGSSCSSNADSEANQLSRAQSLDDFVLSDEDRKNTIHLDLQRADSCDGDFQYELSETIDPETFSHLCEEMRI
B7: OSM-3 (protein, UniProt P46873 1-699)
chain: MAESVRVAVRCRPFNQREKDLNTTLCVGMTPNVGQVNLNAPDGAAKDFTFDGAYFMDSTGEQIYNDIVFPLVENVIEGYNGTVFAYGQTGSGKTFSMQGIETIPAQRGVIPRAFDHIFTATATTENVKFLVHCSYLEIYNEEVRDLLGADNKQKLEIKEQPDRGVYVAGLSMHVCHDVPACKELMTRGFNNRHVGATLMNKDSSRSHSIFTVYVEGMTETGSIRMGKLNLVDLAGSERQSKTGATGDRLKEATKINLSLSALGNVISALVDGKSKHIPYRDSKLTRLLQDSLGGNTKTIMIACVSPSSDNYDETLSTLRYANRAKNIKNKPTINEDPKDALLREYQEEIARLKSMVQPGAVGVGAPAQDAFSIEEERKKLREEFEEAMNDLRGEYEREQTSKAELQKDLESLRADYERANANLDNLNPEEAAKKIQQLQDQFIGGEEAGNTQLKQKRMKQLKEAETKTQKLAAALNVHKDDPLLQVYSTTQEKLDAVTSQLEKEVKKSKGYEREIEDLHGEFELDRLDYLDTIRKQDQQLKLLMQIMDKIQPIIKKDTNYSNVDRIKKEAVWNEDESRWILPEMSMSRTILPLANNGYMQEPARQENTLLRSNFDDKLRERLAKSDSENLANSYFKPVKQINVINKYKSDQKLSTSKSLFPSKTPTFDGLVNGVVYTDALYERAQSAKRPPRLASLNPK

Target: T1, DAF-16::TurboID::mNeongreen::3xFLAG (C. elegans)
Test: proximity labelling; TurboID fused to endogenous DAF-16 in living C. elegans, wild-type (cytoDAF-16) or daf-2(e1370) (nucDAF-16) background; L4/young adults, 1 mM biotin in M9 for 2 h at 21 °C; biotinylated proteins affinity purified on streptavidin and identified by mass spectrometry; control: wild type without …

binding, binds:
APT-9 (from UniProt Q23165)
TMYB-1 (C. elegans (endogenous in C. elegans))
MTCL-1 (C. elegans (endogenous in C. elegans))
SET-26 (from UniProt Q9U263 1-1645) (enzyme)
PRMT-1 (from UniProt Q9U2X0 1-348) (enzyme)
UNC-104 (from UniProt P23678 1-1584)
XPC-1 (from UniProt Q9N4C3)
PAR-1 (from UniProt Q9TW45 1-1192) (enzyme)
SEL-13 (from UniProt Q22139)
PHD-10 (C. elegans (endogenous in C. elegans))
PBRM-1 (C. elegans (endogenous in C. elegans))
SWSN-4 (from UniProt G5EF53 1-1474)
ZFH-2 (from UniProt V6CLN5 1-1615)
SWSN-3 (from UniProt Q9BL39)
SWSN-1 (C. elegans (endogenous in C. elegans))
B1
B2
B3
B4
B5
B6
B7
